These are yes or no findings as the source states them, for the method shown. A result given as binding can be weak or reduced; the word gives no strength.
Target: BSA-calicheamicin (bovine)
Experiment: ELISA, peptide phage

| binding | Binder |
| --- | --- |
| binds | SWWFPQWMAQYPGGGS [Anti-Calicheamicin peptide C9] |
| binds | HSWHWPSWWAGGGGGS [Anti-Calicheamicin peptide C2] |

From patent US20230071019A1
